Reference: publication PMC9478099
Results are given in words; binding and its absence hold for the method and conditions named. In cells and extracts the contact can be indirect. Some entries that bind do so weakly or less than the wild type.

Amino acid sequences for entries named in this document (tags omitted).
UniProt P19338: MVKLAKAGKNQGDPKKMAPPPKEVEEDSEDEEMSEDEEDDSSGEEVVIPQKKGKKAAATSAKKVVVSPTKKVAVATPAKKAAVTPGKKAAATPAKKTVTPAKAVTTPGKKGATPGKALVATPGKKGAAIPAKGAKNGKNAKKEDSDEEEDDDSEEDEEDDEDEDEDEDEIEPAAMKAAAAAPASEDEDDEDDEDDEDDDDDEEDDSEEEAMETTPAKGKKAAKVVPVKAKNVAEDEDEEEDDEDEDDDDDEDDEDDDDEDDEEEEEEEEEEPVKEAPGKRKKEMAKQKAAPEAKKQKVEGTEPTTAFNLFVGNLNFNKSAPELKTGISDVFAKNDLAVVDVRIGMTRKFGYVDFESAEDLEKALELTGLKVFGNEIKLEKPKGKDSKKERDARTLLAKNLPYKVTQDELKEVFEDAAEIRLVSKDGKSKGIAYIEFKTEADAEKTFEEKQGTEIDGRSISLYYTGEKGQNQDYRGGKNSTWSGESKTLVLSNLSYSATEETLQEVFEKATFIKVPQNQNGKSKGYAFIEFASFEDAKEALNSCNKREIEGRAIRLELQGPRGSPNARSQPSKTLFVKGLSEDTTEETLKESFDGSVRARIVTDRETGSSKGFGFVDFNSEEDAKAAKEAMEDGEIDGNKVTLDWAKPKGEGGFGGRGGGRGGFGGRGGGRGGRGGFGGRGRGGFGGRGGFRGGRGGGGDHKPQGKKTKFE
UniProt Q96D31: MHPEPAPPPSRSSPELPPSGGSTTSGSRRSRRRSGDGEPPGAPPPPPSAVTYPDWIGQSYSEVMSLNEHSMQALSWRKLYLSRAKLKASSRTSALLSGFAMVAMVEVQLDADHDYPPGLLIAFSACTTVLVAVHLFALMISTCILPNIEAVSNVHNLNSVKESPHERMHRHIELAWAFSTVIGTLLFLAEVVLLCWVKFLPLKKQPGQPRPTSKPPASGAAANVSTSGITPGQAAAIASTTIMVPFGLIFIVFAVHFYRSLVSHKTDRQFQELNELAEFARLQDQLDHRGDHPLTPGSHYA

Molecular target: Flag-tagged full-length NCL (UniProt P19338)
Experiment: co-IP; MCF-7 cells transfected with NCL-Flag; immunoprecipitation with Flag antibody on protein A/G magnetic beads, mouse IgG as negative control; blots with anti-Flag and anti-Orai1

binding: binds
Substance: Orai1, endogenous (from UniProt Q96D31 1-301)
